Laboratory results published in PMC7819943, “Rice protein-binding microarrays: a tool to detect cis-acting elements near promoter regions in rice”.
The list shows a part of the results.

Molecular target: T1, OsSMF1 (Oryza sativa, UniProt Q6ZLB0 1-436)
T1 sequence: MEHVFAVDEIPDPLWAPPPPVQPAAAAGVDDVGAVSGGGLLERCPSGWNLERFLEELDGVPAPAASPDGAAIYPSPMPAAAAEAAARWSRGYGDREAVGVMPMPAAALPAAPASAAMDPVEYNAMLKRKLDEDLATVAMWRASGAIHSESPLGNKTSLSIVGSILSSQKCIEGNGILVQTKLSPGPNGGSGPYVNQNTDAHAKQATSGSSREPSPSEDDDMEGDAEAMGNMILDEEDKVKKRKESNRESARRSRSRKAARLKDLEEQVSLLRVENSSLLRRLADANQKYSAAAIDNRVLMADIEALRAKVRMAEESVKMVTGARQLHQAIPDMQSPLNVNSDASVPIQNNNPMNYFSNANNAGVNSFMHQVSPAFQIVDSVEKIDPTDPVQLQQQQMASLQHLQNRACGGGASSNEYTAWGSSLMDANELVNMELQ
Experiment: protein-binding microarray (RPBM); PBS, 2% BSA, 51.3 ng/ul salmon testes DNA, 50 uM zinc acetate, 200 nM TF, 25 C, 1 h; high values mean tight binding
Conditions: protein: recombinant; tags: N-terminal polyhistidine and DsRed monomer fusion (pET32a); chain copies: 2; label: CyDye5-dUTP incorporated in the synthesized complementary strand; 3' TTTTT single-stranded linker to array surface; dsDNA, one strand shown
Outline: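 Using Ni–NTA, transcription factors fused N-terminally to polyhistidine and DsRed were purified after expression in E. coli BL21-CodonPlus. These were incubated at 200 nM with a blocked, double-stranded custom Agilent array for 1 h at 25 °C in a buffer containing 50 µM zinc acetate, and the array was washed. The binding signal is per-feature fluorescence intensity (arbitrary units) on an Axon 4000B scanner.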

Question: How did the binding signal turn out when “CGAGTGGTGGGGTGGGGAGTCGCGTGCCCGCGCCGAGACCCGGAGTCACCTAGTGCAG” was run?
Answer: 3890 fluorescence intensity (a.u.)

Question: For “AGGGTTTGGCACGGGCGGGGCGGAGGCGCGCTGCACACATCGGAGTCACCTAGTGCAG”, which binding signal is on record?
Answer: 3820 fluorescence intensity (a.u.)

Question: Which binding signal does the source give for “AGGTGCAGATGCTACTACTGATCTGGAACAGTGATCTCCACGGAGTCACCTAGTGCAG” here?
Answer: 3180 fluorescence intensity (a.u.)

Question: With “GAGAGATTCCTGGCTTCCTGCCTCACGCGCACGCACACCACGGAGTCACCTAGTGCAG” as the sequence, how does the binding signal read?
Answer: 16400 fluorescence intensity (a.u.)

Question: With “ACACAGCCACGCCCGTACGCAGCTACGTACGCACGCATCACGGAGTCACCTAGTGCAG” as the sequence, how does the binding signal read?
Answer: 5670 fluorescence intensity (a.u.)

Question: “GATACTATGTTCAACCGGTGACTAGCCTGGAGCTTCTTCTCGGAGTCACCTAGTGCAG” was tested. Which binding signal did it give?
Answer: 4300 fluorescence intensity (a.u.)

Question: Which binding signal does the source give for “CCAGGGCTGCCCCAAATCTGACTCGGTTTTGGGACTGGATCGGAGTCACCTAGTGCAG” here?
Answer: 4570 fluorescence intensity (a.u.)

Question: “GAGAGAGAGACAGAGACAGAGACAGAGCAAGAACACCTCCCGGAGTCACCTAGTGCAG” was tested. Which binding signal did it give?
Answer: 23400 fluorescence intensity (a.u.)

Question: “AATTAATCCATTATTAACAAATGTTTACTGTAGCATCACACGGAGTCACCTAGTGCAG” was tested. Which binding signal did it give?
Answer: 51600 fluorescence intensity (a.u.)

Question: For “CGCATTGGACAACCTTGACGTGGTGGCCGTCCTCCCGGAGCGGAGTCACCTAGTGCAG”, which binding signal is on record?
Answer: 6100 fluorescence intensity (a.u.)

Question: With “TGTAGTAATCGATATGTGGGACCCAGTGGGACCCGCATCTCGGAGTCACCTAGTGCAG” as the sequence, how does the binding signal read?
Answer: 27500 fluorescence intensity (a.u.)

Question: Which binding signal does the source give for “TCGATCTCGATCGCCATGTCATTGCTCATCACAAGCATCTCGGAGTCACCTAGTGCAG” here?
Answer: 5920 fluorescence intensity (a.u.)

Question: How did the binding signal turn out when “TCGGATCGAATTGCCACGTAAGCGCCACGTCGATGCCACACGGAGTCACCTAGTGCAG” was run?
Answer: 33000 fluorescence intensity (a.u.)

Question: Which binding signal does the source give for “CCGCAGTCGTAAGCCACGTCCTTTCACTAACATGTGAACCCGGAGTCACCTAGTGCAG” here?
Answer: 9040 fluorescence intensity (a.u.)

Question: With “AATATTAGTCACACATAAAGTACTATTCATGTATTATCATCGGAGTCACCTAGTGCAG” as the sequence, how does the binding signal read?
Answer: 3240 fluorescence intensity (a.u.)

Question: “AAGCGAGATGGATGGTATAGGGTGGCGTGGACGGCGGCGGCGGAGTCACCTAGTGCAG” was tested. Which binding signal did it give?
Answer: 4090 fluorescence intensity (a.u.)

Question: For “AGCGGCGCCGGATCAGCCGTGATCACGCCGTCGTGCGCCACGGAGTCACCTAGTGCAG”, which binding signal is on record?
Answer: 24800 fluorescence intensity (a.u.)

Question: For “CTTGCAAGCTTTTGTGAGCTCATCAGCACTGGCATCTCCACGGAGTCACCTAGTGCAG”, which binding signal is on record?
Answer: 3400 fluorescence intensity (a.u.)

Question: For “TTTTCGGAGATAAACGTGGAGTTATATCCAGTATTGCGGTCGGAGTCACCTAGTGCAG”, which binding signal is on record?
Answer: 4020 fluorescence intensity (a.u.)

Question: Which binding signal does the source give for “GTCGCCGCACACGCCACAGTCGTCGTTGCACACACGCGCCCGGAGTCACCTAGTGCAG” here?
Answer: 3820 fluorescence intensity (a.u.)

Question: For “GCCACAATAAAATATTATCCACATATGGCAGTGTTCGTTTCGGAGTCACCTAGTGCAG”, which binding signal is on record?
Answer: 3360 fluorescence intensity (a.u.)

Question: With “GGTCCCTCAGCGGTTTTGGCTGACGTGGCGCATACGTGGCCGGAGTCACCTAGTGCAG” as the sequence, how does the binding signal read?
Answer: 51700 fluorescence intensity (a.u.)

Question: Which binding signal does the source give for “TATATATACTCATCGTGACACATGGTAAGAGCTTACTAAGCGGAGTCACCTAGTGCAG” here?
Answer: 3700 fluorescence intensity (a.u.)

Question: “CCTCAACATATGGGCTGACACGACACGCCTGTGTGGTGAGCGGAGTCACCTAGTGCAG” was tested. Which binding signal did it give?
Answer: 7110 fluorescence intensity (a.u.)

Question: With “GCCGCCGGCGAGAGGCGTTCCGGTCGAGGTCGAGGTCGAGCGGAGTCACCTAGTGCAG” as the sequence, how does the binding signal read?
Answer: 3210 fluorescence intensity (a.u.)

Question: “TGGCCGCTTCGCGCCATGACACGGCGCCGCTCTGACCGCCCGGAGTCACCTAGTGCAG” was tested. Which binding signal did it give?
Answer: 6130 fluorescence intensity (a.u.)

Question: “CTATCGTGCCATGCGCCTATGCCACGCGGTGCCCGCGCCGCGGAGTCACCTAGTGCAG” was tested. Which binding signal did it give?
Answer: 4020 fluorescence intensity (a.u.)

Question: “GCTTCGGCGCGCGCGCCACCTGGCAGTGGGCGCCCTTCCTCGGAGTCACCTAGTGCAG” was tested. Which binding signal did it give?
Answer: 4640 fluorescence intensity (a.u.)

Question: With “TGCGCCACAGTGAACCCGACAGCTGGACAACCGGACACCCCGGAGTCACCTAGTGCAG” as the sequence, how does the binding signal read?
Answer: 4330 fluorescence intensity (a.u.)

Question: How did the binding signal turn out when “GTCACCGTGACTGGCGTTGCCAAACTAGCGTGAACAAAAGCGGAGTCACCTAGTGCAG” was run?
Answer: 23400 fluorescence intensity (a.u.)

Question: Which binding signal does the source give for “GCCGGTGTGGTCGATGCCGACGATGCTGCCGTCGTTCCTGCGGAGTCACCTAGTGCAG” here?
Answer: 3700 fluorescence intensity (a.u.)

Question: How did the binding signal turn out when “ACGCCGACACGACGTCCTCTCTCCTTTCGCCTCCTCATCCCGGAGTCACCTAGTGCAG” was run?
Answer: 3940 fluorescence intensity (a.u.)

Question: “AATCTTCAAACTTTATTTGGAACGGCCCTTAGGCTCTTAGCGGAGTCACCTAGTGCAG” was tested. Which binding signal did it give?
Answer: 13800 fluorescence intensity (a.u.)

Question: For “CACCAGTATCGTGCAAAACACGTCCCCATCCAACTCGCGGCGGAGTCACCTAGTGCAG”, which binding signal is on record?
Answer: 4100 fluorescence intensity (a.u.)

Question: With “CAGTTGACCGCCACGTAGAACCTGTTCCTCCAGCTCACCACGGAGTCACCTAGTGCAG” as the sequence, how does the binding signal read?
Answer: 9340 fluorescence intensity (a.u.)

Question: “TCTTCCAAATGAACTGGCAATATACTTGTACACGTTCTGTCGGAGTCACCTAGTGCAG” was tested. Which binding signal did it give?
Answer: 3190 fluorescence intensity (a.u.)

Question: Which binding signal does the source give for “TAATATGTATAAATTTGGTCTCTACTTTATCCTTCAATTTCGGAGTCACCTAGTGCAG” here?
Answer: 6170 fluorescence intensity (a.u.)

Question: For “TCAGAAAGGTGAGATCGATGCCACGCATTCATGCAGACACCGGAGTCACCTAGTGCAG”, which binding signal is on record?
Answer: 6990 fluorescence intensity (a.u.)

Question: With “AATATAATGTTACTGCATGCATGTATATGACGTTACTGTACGGAGTCACCTAGTGCAG” as the sequence, how does the binding signal read?
Answer: 3520 fluorescence intensity (a.u.)

Question: For “GGGAGAAGTCCATGACCATGCGTCTGCACTCTACAGTACTCGGAGTCACCTAGTGCAG”, which binding signal is on record?
Answer: 3830 fluorescence intensity (a.u.)

Question: Which binding signal does the source give for “GAGGCAAGGAAAGGAAGGAAGCTAGCACGCACATATCCAGCGGAGTCACCTAGTGCAG” here?
Answer: 3300 fluorescence intensity (a.u.)

Question: How did the binding signal turn out when “TAGGAGTCATATGCCACGTGCAGGTTTCTTGAGGCGAGAACGGAGTCACCTAGTGCAG” was run?
Answer: 8320 fluorescence intensity (a.u.)

Question: Which binding signal does the source give for “GCCGATGACGACAGCTCCTCCTCCACCACAACGACAACCTCGGAGTCACCTAGTGCAG” here?
Answer: 5930 fluorescence intensity (a.u.)

Question: For “CCGCTGCCGCGTCGTGTACGTGTGTATATACGCCGCGCCGCGGAGTCACCTAGTGCAG”, which binding signal is on record?
Answer: 3980 fluorescence intensity (a.u.)

Question: Which binding signal does the source give for “CGGAACCTTCGCCTTCGACGTCATACAATGGGAGAAGGCGCGGAGTCACCTAGTGCAG” here?
Answer: 4060 fluorescence intensity (a.u.)

Question: How did the binding signal turn out when “AGGAAGCGCGATGAAGCAGAGTGCATGACGGGGAGTAACCCGGAGTCACCTAGTGCAG” was run?
Answer: 4180 fluorescence intensity (a.u.)

Question: “CTACTCATTGGTATTGATATGTCTGGATGACTGGATGGATCGGAGTCACCTAGTGCAG” was tested. Which binding signal did it give?
Answer: 4320 fluorescence intensity (a.u.)

Question: With “TGCCCCATCCCAGCCCAAGCCCACACGTGACGTAGTGGGCCGGAGTCACCTAGTGCAG” as the sequence, how does the binding signal read?
Answer: 5070 fluorescence intensity (a.u.)

Question: How did the binding signal turn out when “CTAGTAATTTGGTGTGGGATTTGTTGTTTACTTGTTTTCACGGAGTCACCTAGTGCAG” was run?
Answer: 3420 fluorescence intensity (a.u.)

Question: How did the binding signal turn out when “CAATAATACCACACGTGGGCAGTGGGCTGGGATGCTTGTGCGGAGTCACCTAGTGCAG” was run?
Answer: 4830 fluorescence intensity (a.u.)

Question: How did the binding signal turn out when “ATGGCGCAGAGACATGACACATCACCGGTCAACACACCGTCGGAGTCACCTAGTGCAG” was run?
Answer: 7070 fluorescence intensity (a.u.)

Question: For “CACCGCGTTCACCCGCCGCCGCCGCCTCGCCCTTCCGCCACGGAGTCACCTAGTGCAG”, which binding signal is on record?
Answer: 3270 fluorescence intensity (a.u.)

Question: For “CTCTAACCCAATGCCACCACATCCGCGCCTCCCTAGCCGACGGAGTCACCTAGTGCAG”, which binding signal is on record?
Answer: 3880 fluorescence intensity (a.u.)

Question: “GTATTTCCTCCGTTTCACAATGTAAGACTTTCTAACATTGCGGAGTCACCTAGTGCAG” was tested. Which binding signal did it give?
Answer: 26600 fluorescence intensity (a.u.)
